Reference: article PMC5587564
No constants are given. Whether binding was seen depends on the method and setting. Binding seen in cells or lysates may run through a third protein. Some binding calls cover weakened binding; strength is not graded here. Blank lines part the entries; values can stand above or below the molecule they belong to.

Amino acid sequences for entries named in this document (tags omitted).
UniProt P50750: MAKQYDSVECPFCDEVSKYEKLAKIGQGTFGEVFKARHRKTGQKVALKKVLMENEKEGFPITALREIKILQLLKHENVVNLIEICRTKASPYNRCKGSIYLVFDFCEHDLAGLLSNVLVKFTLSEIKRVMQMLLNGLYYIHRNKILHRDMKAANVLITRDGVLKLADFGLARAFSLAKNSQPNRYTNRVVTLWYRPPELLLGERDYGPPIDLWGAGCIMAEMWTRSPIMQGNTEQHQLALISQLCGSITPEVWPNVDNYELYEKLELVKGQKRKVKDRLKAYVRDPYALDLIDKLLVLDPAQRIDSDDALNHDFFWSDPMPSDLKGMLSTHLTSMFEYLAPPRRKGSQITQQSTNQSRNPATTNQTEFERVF
UniProt O94992: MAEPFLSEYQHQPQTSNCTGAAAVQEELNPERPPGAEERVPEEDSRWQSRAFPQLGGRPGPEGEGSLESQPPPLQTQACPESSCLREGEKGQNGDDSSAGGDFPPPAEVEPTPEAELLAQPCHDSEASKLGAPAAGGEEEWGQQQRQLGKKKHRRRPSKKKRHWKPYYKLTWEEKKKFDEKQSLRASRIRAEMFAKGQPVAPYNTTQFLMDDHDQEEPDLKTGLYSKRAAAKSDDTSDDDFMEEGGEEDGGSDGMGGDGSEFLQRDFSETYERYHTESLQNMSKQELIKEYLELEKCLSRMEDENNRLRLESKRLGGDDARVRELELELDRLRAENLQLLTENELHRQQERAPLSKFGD

Molecular target: Flag-tagged CDK9 (human) (UniProt P50750)
Assay: co-IP; anti-Flag agarose IP (2 hr) from nuclear extracts of F1C2 cells stably expressing CDK9-Flag; cells treated with 200 μg/ml Amt-87 or DMSO for 24 hr; Western blot

binding: binds
Molecule: HEXIM1 (from UniProt O94992 1-359)

binding: binds
B1: LARP7 (protein, UniProt Q4G0J3 1-582)
chain: METESGNQEKVMEEESTEKKKEVEKKKRSRVKQVLADIAKQVDFWFGDANLHKDRFLREQIEKSRDGYVDISLLVSFNKMKKLTTDGKLIARALRSSAVVELDLEGTRIRRKKPLGERPKDEDERTVYVELLPKNVNHSWIERVFGKCGNVVYISIPHYKSTGDPKGFAFVEFETKEQAAKAIEFLNNPPEEAPRKPGIFPKTVKNKPIPALRVVEEKKKKKKKKGRMKKEDNIQAKEENMDTSNTSISKMKRSRPTSEGSDIESTEPQKQCSKKKKKRDRVEASSLPEVRTGKRKRSSSEDAESLAPRSKVKKIIQKDIIKEASEASKENRDIEISTEEEKDTGDLKDSSLLKTKRKHKKKHKERHKMGEEVIPLRVLSKSEWMDLKKEYLALQKASMASLKKTISQIKSESEMETDSGVPQNTGMKNEKTANREECRTQEKVNATGPQFVSGVIVKIISTEPLPGRKQVRDTLAAISEVLYVDLLEGDTECHARFKTPEDAQAVINAYTEINKKHCWKLEILSGDHEQRYWQKILVDRQAKLNQPREKKRGTEKLITKAEKIRLAKTQQASKHIRFSEYD
